The whole screen tested about 390,000 compounds, of which about 910 (0.23%) were called active. Inconclusive results, whose numbers are uncertain, are shown with a selection of clear calls. Calls come from the whole dose curve; as a rule, active = well fitted inhibition curve with a large enough effect; inconclusive = small, poorly fitted or top-dose-only effect; inactive = no such curve, though single readings can be large or run the other way. Potencies beside an inconclusive call are fits to weak or partial responses and may not hold up.
Biological target: Ubiquitin carboxyl-terminal hydrolase 1 (Homo sapiens) (UniProt O94782)
Assay: Inhibitors of USP1/UAF1: Primary Screen; note: nearly all actives have a fitted effect of over 60% in size
Details: recombinant USP1/UAF1, Ub-Rhodamine cleavage fluorescence; activity change, negative = inhibition: at 57.1 µM (top of the series)
Procedure, shortened: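 Step one: compound is pinned into 1nM USP1/UAF1 in HEPES pH 7.8 buffer with TCEP. Step two: 15 min room-temperature incubation. Step three: Ub-Rho (150nM final) starts cleavage, tracked by fluorescence over six one-minute reads.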
% is set by controls: 0 for no effect and ±100 for the full control effect; potency is the fitted concentration of half-maximal effect.

Protein sequences, listed by entry. Tags and fused reporters are not part of them. Lines headed by an entry give the natural chain unless they say otherwise; changes in a name come on top.
UniProt O94782: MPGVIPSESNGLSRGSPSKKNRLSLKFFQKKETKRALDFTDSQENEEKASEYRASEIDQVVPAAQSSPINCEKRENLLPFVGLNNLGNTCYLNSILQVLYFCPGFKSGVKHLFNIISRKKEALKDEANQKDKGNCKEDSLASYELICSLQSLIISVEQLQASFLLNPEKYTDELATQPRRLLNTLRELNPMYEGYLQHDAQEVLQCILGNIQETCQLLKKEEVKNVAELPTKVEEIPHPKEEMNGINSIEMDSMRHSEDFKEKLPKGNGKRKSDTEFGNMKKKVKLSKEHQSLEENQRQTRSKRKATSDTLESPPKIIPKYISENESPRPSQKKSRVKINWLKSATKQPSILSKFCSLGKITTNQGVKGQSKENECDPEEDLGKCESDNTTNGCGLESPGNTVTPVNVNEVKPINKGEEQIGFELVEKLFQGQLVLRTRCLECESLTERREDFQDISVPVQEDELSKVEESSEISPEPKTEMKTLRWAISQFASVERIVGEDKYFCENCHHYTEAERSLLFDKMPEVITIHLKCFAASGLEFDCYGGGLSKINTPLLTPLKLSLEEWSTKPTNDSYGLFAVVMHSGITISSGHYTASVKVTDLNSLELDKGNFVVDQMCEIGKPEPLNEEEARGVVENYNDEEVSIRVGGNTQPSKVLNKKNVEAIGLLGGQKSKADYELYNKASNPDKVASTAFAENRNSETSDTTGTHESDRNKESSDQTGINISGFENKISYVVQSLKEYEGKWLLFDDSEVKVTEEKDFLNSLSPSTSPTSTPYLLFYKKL

SMILES | Potency | activity change, negative = inhibition
N#Cc1cc(C(=O)c2ccccc2O)cn(-c2nccs2)c1=O | active: 28.2 µM | 
CNC(=O)c1cc2cc(OC)ccc2oc1=O |  | inactive: -8.2%
Cc1cccc(CN2C(=O)c3ccccc3Sc3ccc(C(=O)NCCCN4CCOCC4)cc32)c1 | inconclusive: 44.7 µM [inhibitor, single point] | 
Cc1cc(NC(=O)COC(=O)c2cnccn2)ccc1Br |  | inactive: -21.1%
COc1cc(C(=O)Nn2c(O)c(C3=c4ccccc4=NC3=O)sc2=S)ccc1O | inconclusive: 31.6 µM [inhibitor, partial curve] | 
CCOC(=O)c1c(NC(=O)C2CC(Cl)=CCC2C(=O)O)sc2c1CC(C)(C)OC2 (stereo unspecified) | inconclusive: 39.8 µM [inhibitor, partial curve, poor fit] | 
NNc1ccc(Cc2ccc(Cl)cc2Cl)nn1 | inconclusive: 0.794 µM [inhibitor, full curve, poor fit] | 
Cc1cccc(NC(=O)COC(=O)c2c(-c3ccccc3)noc2C)c1 | inconclusive: 0.355 µM [inhibitor, full curve, poor fit] | 
COc1ccc(CCN2C(=O)CN(C3CCCCCC3)C(=O)C2c2ccc(Cl)cc2)cc1OC (stereo unspecified) |  | inactive: -13.2%
Cc1ccc(Cl)cc1N1CCN(C(=O)CCc2nnc3n(C)c(=O)c4ccccc4n23)CC1 | inconclusive: 89.1 µM [inhibitor, partial curve, poor fit] | 
COc1ccccc1N1CCN(Cc2nc(-c3cc(OC)c(OC)c(OC)c3)no2)CC1 |  | inactive: -17.3%
CC1CCN(CCCn2c(SCC(=O)Nc3ccccc3Cl)nc3ccccc3c2=O)CC1 | inconclusive: 7.08 µM [inhibitor, partial curve, poor fit] | 
O=C(CSc1nnc(-c2ccccc2F)o1)NC1CCCCC1 | inconclusive: 44.7 µM [inhibitor, single point] | 
COc1ccccc1N=Nc1ccc(O)c2ncccc12 | inconclusive: 28.2 µM [inhibitor, partial curve] | 
C/C(=N/NC(=O)c1ccc(C(C)(C)C)cc1)c1ccccn1 |  | inactive: 12.8%
Cc1cccc(NC(=O)C(=O)NCC2CCCN2S(=O)(=O)c2cccs2)c1C (stereo unspecified) | inconclusive: 0.282 µM [inhibitor, full curve] | 
CCc1cccc(C)c1Nc1c(-c2ccc(N(C)C)cc2)nc2cnccn12 | inconclusive: 0.398 µM [inhibitor, full curve, poor fit] | 
COc1cccc(CNC(=O)c2ccc3nc(CCc4ccccc4)oc3c2)c1OC |  | inactive: -27.2%
Cc1nc(N=C(N)N)nc2ccccc12 | inconclusive: 56.2 µM [inhibitor, partial curve, poor fit] | 
CCOC(=O)C1=CN(Cc2cccc(F)c2)S(=O)(=O)NC1c1ccccc1 (stereo unspecified) | inconclusive: 5.01 µM [inhibitor, partial curve] | 
CCCSCCCNC(=O)c1sc2nc(C)cc(C)c2c1-n1cccc1 |  | inactive: -16.6%
CC(=O)Nc1ccc(S(=O)(=O)NCCS(=O)(=O)N2CCN(c3ccccc3)CC2)cc1 | inconclusive: 20 µM [inhibitor, partial curve, poor fit] | 

SMILES | Potency | activity change, negative = inhibition
COCC(=O)N(C)C[C@H]1Oc2cc(Br)ccc2S(=O)(=O)N([C@H](C)CO)C[C@H]1C | inconclusive: 0.251 µM [inhibitor, full curve, poor fit] | 
O=C(NCc1cccs1)c1cc(S(=O)(=O)N2CCCCC2)ccc1Cl | inconclusive: 28.2 µM [inhibitor, single point] | 
CC(C)c1ccc(C2=NC(c3ccncc3)=Nc3ccc(F)cc3N2)cc1 |  | inactive: -20.3%
COC/C=C/C1=CC2=CC(=O)C(C)(OC(=O)C3CCCC3)C(=O)C2=CO1 (stereo unspecified) | inconclusive: 25.1 µM [inhibitor, single point] | 
Cc1ccc(NC(=O)c2ccc(N(Cc3ccccc3)S(C)(=O)=O)cc2)cc1 | inconclusive: 39.8 µM [inhibitor, single point] | 
COc1ccc(CN2C=C3C(=O)C(C)(OC(=O)CCc4ccccc4)C(=O)C=C3C=C2c2ccc(C#N)cc2)cc1 (stereo unspecified) | inconclusive: 2.24 µM [inhibitor, full curve, poor fit] | 
O=C(N/N=C/c1ccc(OC(=O)c2ccccc2Cl)cc1)c1cc(O)cc(O)c1 |  | inactive: -11.9%
O=C(Nc1cccc(NC(=O)c2cccs2)c1)c1ccc2c(c1)OCCO2 | inconclusive: 44.7 µM [inhibitor, partial curve] | 
O=C1/C(=C\c2cccs2)N=C(c2cccs2)N1Nc1ccccc1 | inconclusive: 25.1 µM [inhibitor, single point] | 
CCOc1ccc(S(=O)(=O)NCc2cccnc2)c2ccccc12 | inconclusive: 1.78 µM [inhibitor, partial curve] | 
COc1ccc(-c2csc(/C(C#N)=C/Nc3ccc4c(c3)OCCO4)n2)cc1 |  | inactive: -1.32%
N#C/C(=C\C1=C(N2CCOCC2)C(=C/c2cccc([N+](=O)[O-])c2)/CC1)C(=O)Nc1ccccc1F |  | inactive: -12.8%
Cc1ccccc1NC(=O)C(Cc1ccccc1)n1cccc1 (stereo unspecified) | inconclusive: 0.398 µM [inhibitor, full curve, poor fit] | 
Cc1ccsc1C1NC(=O)c2c(sc3c2CCN(C)C3)N1 (stereo unspecified) | inconclusive: 44.7 µM [inhibitor, partial curve] | 
CCCC(=O)Nc1nc(-c2ccccc2)c(CC)s1 |  | inactive: -21.6%
COc1ccc(NC(=O)c2c(NCc3cccs3)sc3c2CCCCC3)c(OC)c1 |  | inactive: -16.6%
O=c1c2ccccc2cnn1-c1ccc2ccccc2c1 |  | inactive: 3.07%
COc1cc2ccc(=O)oc2c(O)c1OCC=C(C)C | inconclusive: 0.708 µM [inhibitor, full curve, poor fit] | 
Cn1c(=O)c2cc(C(=O)Nc3cccc(C#N)c3)sc2c2ccccc21 |  | inactive: -2.84%
CCN(CC)c1ccc(/C=N/NS(=O)(=O)c2cccc([N+](=O)[O-])c2)cc1 |  | inactive: -10.5%
CCc1ccc(NC(=O)C2CCN(S(=O)(=O)c3c(C)noc3C)CC2)cc1 | inconclusive: 4.47 µM [inhibitor, partial curve] | 
CCC(CC)C(=O)Nc1cccc(C(=O)Nc2nnc(C)s2)c1 | inconclusive: 0.112 µM [inhibitor, full curve, poor fit] | 

SMILES | Potency | activity change, negative = inhibition
Cc1c(C(=O)Nc2cccc(C#N)c2)sc2nc3n(c(=O)c12)CCCCC3 | inconclusive: 8.91 µM [inhibitor, single point] | 
Cc1ccc(SCCc2cc[n+](CC(=O)c3ccccc3)cc2)cc1 | inconclusive: 35.5 µM [inhibitor, single point] | 
CCc1cccc(C)c1NC(=O)CN1C(=O)c2ccccc2Sc2ncccc21 |  | inactive: -18.2%
COc1ccc(-n2c(O)c(/C=N/NS(=O)(=O)c3ccc(C)cc3)c3ccccc3c2=O)cc1OC | inconclusive: 28.2 µM [inhibitor, partial curve] | 
CN(C)/N=C/C=C1\CC/C(=C\c2ccc(Br)cc2)C1=O | inconclusive: 31.6 µM [inhibitor, partial curve] | 
COC(=O)c1sc2cccc(F)c2c1S(=O)(=O)Nc1cc(C)c(Cl)cc1OC | inconclusive: 44.7 µM [inhibitor, partial curve, poor fit] | 
CCOC(=O)/C=C/C(=O)OCc1csc(CC(=O)Nc2ccccc2C)n1 | inconclusive: 70.8 µM [inhibitor, partial curve, poor fit] | 
CCc1ccccc1NC(=O)Cn1c(=O)n(CCc2ccccc2)c(=O)c2ccccc21 | inconclusive: 44.7 µM [inhibitor, partial curve] | 
CCc1cccc2c(C(=O)CN3C(=O)NC4(CCc5ccccc54)C3=O)c[nH]c12 (stereo unspecified) |  | inactive: -4.48%
Cc1cc(OCC(=O)Nc2cccnc2)c2c(C)c(C)c(=O)oc2c1 |  | inactive: -21.8%
O=C(CSc1ncn(-c2ccccc2)n1)c1cccs1 |  | inactive: -8.81%
Cc1cc(-c2ccco2)n(CC(=O)NCc2ccccc2)n1 | inconclusive: 15.8 µM [inhibitor, partial curve] | 
COCCN(C(=O)c1cc(-c2ccco2)nc2ccccc12)c1c(N)n(Cc2ccccc2)c(=O)[nH]c1=O |  | inactive: -5.91%
COc1ccc(Nc2c3c(nc4ccc(NC(=O)c5cc(Cl)ccc5OC)cc24)CCCC3)cc1OC | inconclusive: 35.5 µM [inhibitor, partial curve] | 
CCOc1ccc(CC(=O)Nc2c(C(=O)c3ccc(F)cc3)oc3ccc(Cl)cc23)cc1OCC | inconclusive: 316 µM [inhibitor, partial curve, poor fit] | 
CCN1C(=O)/C(=C/C=C2/CCCN2C)OC1=S | inconclusive: 44.7 µM [inhibitor, partial curve, poor fit] | 
Cc1ccccc1Nc1nc(N)nc(COC(=O)c2ccco2)n1 | inconclusive: 6.31 µM [inhibitor, full curve, poor fit] | 
CC(C)Oc1ccc(CNC(=O)c2cccc(NC(=O)c3nsc4ccccc34)c2)cc1 |  | inactive: -3.52%
CSc1nc(N)nc2c1ncn2CC(=O)NCCCc1ccccc1 | inconclusive: 39.8 µM [inhibitor, partial curve, poor fit] | 
C#CCOCCOCCOCCNc1nc(N2CCN(C(=O)[C@H]([C@@H](C)CC)n3cc([C@@H](N)CC(C)C)nn3)CC2)nc(N2CCN(C(=O)[C@H]([C@@H](C)CC)n3cc([C@@H](N)CC(C)C)nn3)CC2)n1 | inconclusive: 44.7 µM [inhibitor, partial curve, poor fit] | 
O=S1c2ccccc2Oc2ccccc21 | inconclusive: 7.08 µM [inhibitor, single point] | 
COc1ccccc1S(=O)(=O)N(C)C[C@H]1Oc2ncc(Br)cc2C(=O)N([C@H](C)CO)C[C@H]1C | inconclusive: 44.7 µM [inhibitor, partial curve] | 

Looked up one by one from the entries so far (3):
SMILES | Potency | activity change, negative = inhibition
CCN1C(=O)/C(=C/C=C2/CCCN2C)OC1=S | inconclusive: 44.7 µM [inhibitor, partial curve, poor fit] | 
COC(=O)c1sc2cccc(F)c2c1S(=O)(=O)Nc1cc(C)c(Cl)cc1OC | inconclusive: 44.7 µM [inhibitor, partial curve, poor fit] | 
Cc1ccccc1Nc1nc(N)nc(COC(=O)c2ccco2)n1 | inconclusive: 6.31 µM [inhibitor, full curve, poor fit] | 

Source: PubChem BioAssay AID743255 (National Center for Advancing Translational Sciences (NCATS), 2014)
